PubChem BioAssay AID1671195 | Yale University – 2021

- Assay: 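Regulators of LDL receptor activity judged by labelled LDL uptake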 (primary screen)
- Cell system: human Huh7 hepatoma cells
- Reagent: siRNA pool against human genes, 18 nM
- Timing: about 2 to 2.5 days of knockdown, then 8 h LDL uptake
- Treatment: DiI-labelled LDL at 30 µg/ml for 8 h, in lipoprotein-deficient serum medium
- Detection: 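Fluorescent LDL signal imaged in cells, scaled to the plate median, robust z-score for each replicate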
- Reading the numbers: robust z-score: higher = more LDL uptake after knockdown
- Call rule: 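a gene counts as active if at least two replicate z-scores exceed ±2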
This is one part, drawn at random, of about 22,000 reagents. Of all reagents, about 1,510 (6.9%) were called active. 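Active includes knockdowns raising or lowering LDL uptake; positive z-scores mean more uptake, negative mean less.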 Entries without a mark were called inactive. No sequences are given here.

{"gene knocked down": "HABP4", "robust z-score, replicate 1": 0.581, "robust z-score, replicate 2": 1.42, "robust z-score, replicate 3": 1.04}
{"gene knocked down": "FRK", "robust z-score, replicate 1": -0.351, "robust z-score, replicate 2": -0.159, "robust z-score, replicate 3": -0.565}
{"gene knocked down": "BMP8B", "robust z-score, replicate 1": -0.991, "robust z-score, replicate 2": -0.932, "robust z-score, replicate 3": -1.69}
{"gene knocked down": "PCYOX1L", "robust z-score, replicate 1": -0.459, "robust z-score, replicate 2": -0.971, "robust z-score, replicate 3": -0.835}
{"gene knocked down": "FRMD6", "robust z-score, replicate 1": 0.836, "robust z-score, replicate 2": 0.919, "robust z-score, replicate 3": 0.304}
{"gene knocked down": "CERCAM", "robust z-score, replicate 1": -0.29, "robust z-score, replicate 2": -0.849, "robust z-score, replicate 3": 0.145}
{"gene knocked down": "WDR1", "robust z-score, replicate 1": 0.695, "robust z-score, replicate 2": -0.642, "robust z-score, replicate 3": 0.933}
{"gene knocked down": "COL25A1", "robust z-score, replicate 1": 0.291, "robust z-score, replicate 2": 0.117, "robust z-score, replicate 3": 0.288}
{"gene knocked down": "UBE2B", "robust z-score, replicate 1": 0.278, "robust z-score, replicate 2": -0.464, "robust z-score, replicate 3": 0.719}
{"gene knocked down": "BET1L", "robust z-score, replicate 1": -1.22, "robust z-score, replicate 2": -0.919, "robust z-score, replicate 3": -0.469}
{"gene knocked down": "TRIOBP", "robust z-score, replicate 1": 0.232, "robust z-score, replicate 2": 0.764, "robust z-score, replicate 3": 0.912}
{"gene knocked down": "TSPAN32", "robust z-score, replicate 1": 0.308, "robust z-score, replicate 2": 0.32, "robust z-score, replicate 3": -0.0622}
{"gene knocked down": "SIX2", "robust z-score, replicate 1": 0.142, "robust z-score, replicate 2": -1.33, "robust z-score, replicate 3": 0.756}
{"gene knocked down": "CCER1", "robust z-score, replicate 1": -1.97, "robust z-score, replicate 2": -1.7, "robust z-score, replicate 3": -0.861}

Continued (3 carried over from the part before).
{"gene knocked down": "TSPAN32", "robust z-score, replicate 1": 0.308, "robust z-score, replicate 2": 0.32, "robust z-score, replicate 3": -0.0622}
{"gene knocked down": "SIX2", "robust z-score, replicate 1": 0.142, "robust z-score, replicate 2": -1.33, "robust z-score, replicate 3": 0.756}
{"gene knocked down": "CCER1", "robust z-score, replicate 1": -1.97, "robust z-score, replicate 2": -1.7, "robust z-score, replicate 3": -0.861}
{"gene knocked down": "NRG2", "robust z-score, replicate 1": 0.963, "robust z-score, replicate 2": -0.323, "robust z-score, replicate 3": -0.268}
{"gene knocked down": "GJA1", "robust z-score, replicate 1": -0.618, "robust z-score, replicate 2": -0.557, "robust z-score, replicate 3": -0.145}
{"gene knocked down": "RBM42", "robust z-score, replicate 1": -0.943, "robust z-score, replicate 2": -0.559, "robust z-score, replicate 3": -0.68}
{"gene knocked down": "MYL11", "robust z-score, replicate 1": -0.308, "robust z-score, replicate 2": -0.708, "robust z-score, replicate 3": -0.688}
{"gene knocked down": "IPMK", "robust z-score, replicate 1": -0.491, "robust z-score, replicate 2": -0.443, "robust z-score, replicate 3": 0.462}
{"gene knocked down": "TAS2R3", "robust z-score, replicate 1": -1, "robust z-score, replicate 2": -1.47, "robust z-score, replicate 3": -0.675}
{"gene knocked down": "RBMXL1", "robust z-score, replicate 1": -0.374, "robust z-score, replicate 2": -0.286, "robust z-score, replicate 3": -0.512}
{"gene knocked down": "DCN", "robust z-score, replicate 1": 1.09, "robust z-score, replicate 2": -0.417, "robust z-score, replicate 3": 0.0941}
{"gene knocked down": "MTFMT", "robust z-score, replicate 1": -0.0957, "robust z-score, replicate 2": -0.769, "robust z-score, replicate 3": -0.36}
{"gene knocked down": "EPC1", "robust z-score, replicate 1": 0.183, "robust z-score, replicate 2": 0.742, "robust z-score, replicate 3": 0.664}
